Laboratory results taken from PMC4876461.

Molecular target: T1, Flag-SUMO5 (human) (UniProt G2XKQ0)
T1 sequence: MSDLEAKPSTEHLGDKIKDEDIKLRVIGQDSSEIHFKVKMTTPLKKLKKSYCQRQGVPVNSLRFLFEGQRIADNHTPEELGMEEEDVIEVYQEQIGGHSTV
Test: affinity purification with mass spectrometry; lysate of 293 cells expressing Flag-SUMO5 (PBS, 0.1% NP-40) on an anti-Flag M2-agarose column, eluted with Flag peptide; bands specific to the SUMO5 complex identified by mass spectrometry

B1: SAE2 (enzyme, UniProt Q9UBT2 1-640)
chain: MALSRGLPRELAEAVAGGRVLVVGAGGIGCELLKNLVLTGFSHIDLIDLDTIDVSNLNRQFLFQKKHVGRSKAQVAKESVLQFYPKANIVAYHDSIMNPDYNVEFFRQFILVMNALDNRAARNHVNRMCLAADVPLIESGTAGYLGQVTTIKKGVTECYECHPKPTQRTFPGCTIRNTPSEPIHCIVWAKYLFNQLFGEEDADQEVSPDRADPEAAWEPTEAEARARASNEDGDIKRISTKEWAKSTGYDPVKLFTKLFKDDIRYLLTMDKLWRKRKPPVPLDWAEVQSQGEETNASDQQNEPQLGLKDQQVLDVKSYARLFSKSIETLRVHLAEKGDGAELIWDKDDPSAMDFVTSAANLRMHIFSMNMKSRFDIKSMAGNIIPAIATTNAVIAGLIVLEGLKILSGKIDQCRTIFLNKQPNPRKKLLVPCALDPPNPNCYVCASKPEVTVRLNVHKVTVLTLQDKIVKEKFAMVAPDVQIEDGKGTILISSEEGETEANNHKKLSEFGIRNGSRLQADDFLQDYTLLINILHSEDLGKDVEFEVVGDAPEKVGPKQAEDAAKSITNGSDDGAQPSTSTAQEQDDVLIVDSDEEDSSNNADVSEEERSRKRKLDEKENLSAKRSRIEQKEELDDVIALD
B1 was tested, and the binding was “binds”.

Results are given in words; binding and its absence hold for the method and conditions named. In cells and extracts the contact can be indirect. A yes stands for co-enrichment or nearness to the bait. Other partners may have been found. Sequences can lack the tags named with a protein.
